{"source": "patent US12625142B2", "about": "“Assay for measuring binding affinity for cardiolipin of biologically active compounds” (Latvian Institute of Organic Synthesis, priority 2020, dated 2026)", "test": "competition binding assay for cardiolipin with fluorescent probe I and CL-DOPC liposomes (25:75 mol %)", "details": "for relative binding affinity for CL within the studied set (in words): comparison of EC50 values; for EC50: 20 mM HEPES buffer, 2.5 μM CL, 5 μM I, means ± S.D. from 3 independent experiments", "data": [{"smiles": "CNC(C)[C@@H]1CC[C@@H](N)[C@@H](O[C@H]2[C@@H](O)[C@@H](O[C@H]3OC[C@](C)(O)[C@H](NC)[C@@H]3O)[C@H](N)C[C@@H]2N)O1.O=S(=O)(O)O", "note": "(stereo partly drawn) [Example 8, (2R,3S,4R,5R)-2-(((1S,2R,3R,4S,6R)-4,6-diamino (((2R,3R,6S)-3-amino-6-(1-(methylamino)ethyl)tetrahydro-2H-pyran-2-yl)oxy)-2-hydroxycyclohexyl)oxy)-5-methyl-4-(methylamino)tetrahydro-2H-pyran-3,5-diol sulfate]", "values": [{"measurement": "relative binding affinity for CL within the studied set (in words)", "setting": "20 mM HEPES, listed as Gentamicin", "result": "highest affinity for CL"}, {"measurement": "relative binding affinity for CL within the studied set (in words)", "setting": "20 mM HEPES, listed as gentamicin", "result": "highest"}, {"measurement": "times lower affinity toward CL than natural ligand cytochrome c", "setting": "pH 7.4, 20 mM HEPES, FIG. 2C", "result": "≈ 3 times"}, {"measurement": "EC50", "setting": "pH = 6.8", "result": "1010 ± 120", "unit": "nM"}, {"measurement": "EC50", "setting": "pH = 7.4", "result": "980 ± 140", "unit": "nM"}]}]}
